# The supplement of paper PMC12819154, “High-throughput peptide-centric local stability assay extends protein–ligand identification to membrane proteins, tissues and bacteria” (Nature Structural & Molecular Biology, 2025)
# By UniProt entry, the sequences of proteins in these tests, tags left out. Where a name states a change or a piece, a line headed by the entry shows the natural chain unless it says otherwise.
# UniProt Q61584: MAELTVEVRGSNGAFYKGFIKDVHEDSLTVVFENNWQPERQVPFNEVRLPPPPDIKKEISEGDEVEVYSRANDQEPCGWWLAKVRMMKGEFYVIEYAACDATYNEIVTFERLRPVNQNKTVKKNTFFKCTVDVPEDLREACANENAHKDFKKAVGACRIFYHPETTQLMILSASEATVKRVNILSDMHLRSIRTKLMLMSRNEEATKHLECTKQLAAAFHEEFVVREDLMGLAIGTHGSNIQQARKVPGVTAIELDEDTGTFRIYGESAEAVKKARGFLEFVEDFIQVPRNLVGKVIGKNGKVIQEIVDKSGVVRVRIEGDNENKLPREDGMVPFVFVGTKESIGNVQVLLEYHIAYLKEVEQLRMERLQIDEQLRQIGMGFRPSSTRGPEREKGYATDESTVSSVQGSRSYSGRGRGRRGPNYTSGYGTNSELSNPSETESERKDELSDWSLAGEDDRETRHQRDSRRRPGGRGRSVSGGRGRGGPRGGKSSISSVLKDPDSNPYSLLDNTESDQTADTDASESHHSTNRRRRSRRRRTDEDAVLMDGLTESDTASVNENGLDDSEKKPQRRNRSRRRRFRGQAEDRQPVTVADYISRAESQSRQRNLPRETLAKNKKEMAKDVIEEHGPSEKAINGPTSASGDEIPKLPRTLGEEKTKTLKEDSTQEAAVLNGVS
# UniProt Q68FH4: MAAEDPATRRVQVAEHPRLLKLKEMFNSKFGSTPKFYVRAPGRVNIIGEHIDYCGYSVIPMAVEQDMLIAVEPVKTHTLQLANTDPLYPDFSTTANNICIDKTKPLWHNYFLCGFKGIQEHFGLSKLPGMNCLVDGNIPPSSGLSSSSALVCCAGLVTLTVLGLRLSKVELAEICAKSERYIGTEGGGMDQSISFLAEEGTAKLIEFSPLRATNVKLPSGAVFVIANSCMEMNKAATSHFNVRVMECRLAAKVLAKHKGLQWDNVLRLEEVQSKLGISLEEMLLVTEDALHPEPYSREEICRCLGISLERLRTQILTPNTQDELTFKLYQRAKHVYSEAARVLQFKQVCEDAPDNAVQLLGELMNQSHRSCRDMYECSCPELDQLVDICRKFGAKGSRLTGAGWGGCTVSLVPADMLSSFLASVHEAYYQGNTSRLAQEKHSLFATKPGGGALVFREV
# UniProt Q61382: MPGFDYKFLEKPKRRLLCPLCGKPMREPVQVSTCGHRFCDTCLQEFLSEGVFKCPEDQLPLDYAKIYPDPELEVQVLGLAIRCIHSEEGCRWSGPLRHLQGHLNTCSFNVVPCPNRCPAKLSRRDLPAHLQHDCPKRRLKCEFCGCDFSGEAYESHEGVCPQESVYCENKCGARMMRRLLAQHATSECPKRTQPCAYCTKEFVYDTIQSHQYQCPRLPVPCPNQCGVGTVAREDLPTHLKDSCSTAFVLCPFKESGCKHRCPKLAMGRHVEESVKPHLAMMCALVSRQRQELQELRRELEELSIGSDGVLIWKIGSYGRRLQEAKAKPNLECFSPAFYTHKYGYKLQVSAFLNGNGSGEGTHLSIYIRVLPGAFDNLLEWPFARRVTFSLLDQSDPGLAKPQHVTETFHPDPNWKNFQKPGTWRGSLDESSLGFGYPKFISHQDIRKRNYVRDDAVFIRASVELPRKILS
# UniProt Q61545: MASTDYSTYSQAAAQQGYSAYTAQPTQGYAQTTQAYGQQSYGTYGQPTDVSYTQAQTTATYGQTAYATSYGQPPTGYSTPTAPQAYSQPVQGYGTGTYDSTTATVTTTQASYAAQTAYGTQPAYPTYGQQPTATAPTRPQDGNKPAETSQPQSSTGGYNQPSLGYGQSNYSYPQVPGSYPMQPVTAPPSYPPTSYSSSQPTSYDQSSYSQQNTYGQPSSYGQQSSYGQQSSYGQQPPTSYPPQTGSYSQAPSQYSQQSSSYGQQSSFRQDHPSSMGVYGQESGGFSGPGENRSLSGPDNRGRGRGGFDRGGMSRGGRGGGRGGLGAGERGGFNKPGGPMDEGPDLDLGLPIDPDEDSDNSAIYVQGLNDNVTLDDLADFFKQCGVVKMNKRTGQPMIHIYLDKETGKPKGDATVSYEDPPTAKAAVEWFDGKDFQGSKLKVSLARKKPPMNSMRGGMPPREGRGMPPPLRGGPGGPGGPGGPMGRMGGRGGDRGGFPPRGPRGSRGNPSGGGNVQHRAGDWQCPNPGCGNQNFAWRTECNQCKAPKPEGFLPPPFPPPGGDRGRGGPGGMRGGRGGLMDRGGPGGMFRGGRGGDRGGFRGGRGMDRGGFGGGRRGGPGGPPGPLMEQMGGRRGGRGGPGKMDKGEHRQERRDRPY
# UniProt Q62418: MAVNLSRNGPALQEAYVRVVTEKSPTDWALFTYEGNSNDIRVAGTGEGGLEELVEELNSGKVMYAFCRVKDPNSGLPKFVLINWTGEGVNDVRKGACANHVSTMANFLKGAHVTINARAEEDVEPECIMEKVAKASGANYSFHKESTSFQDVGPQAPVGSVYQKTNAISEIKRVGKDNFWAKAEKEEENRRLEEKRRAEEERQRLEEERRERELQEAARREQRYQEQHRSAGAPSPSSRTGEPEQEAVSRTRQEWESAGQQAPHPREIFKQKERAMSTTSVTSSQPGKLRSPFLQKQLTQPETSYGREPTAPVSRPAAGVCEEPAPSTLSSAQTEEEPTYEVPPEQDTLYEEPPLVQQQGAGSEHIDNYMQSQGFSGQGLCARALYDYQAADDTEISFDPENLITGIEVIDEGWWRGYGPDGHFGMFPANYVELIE
# UniProt Q68FG3: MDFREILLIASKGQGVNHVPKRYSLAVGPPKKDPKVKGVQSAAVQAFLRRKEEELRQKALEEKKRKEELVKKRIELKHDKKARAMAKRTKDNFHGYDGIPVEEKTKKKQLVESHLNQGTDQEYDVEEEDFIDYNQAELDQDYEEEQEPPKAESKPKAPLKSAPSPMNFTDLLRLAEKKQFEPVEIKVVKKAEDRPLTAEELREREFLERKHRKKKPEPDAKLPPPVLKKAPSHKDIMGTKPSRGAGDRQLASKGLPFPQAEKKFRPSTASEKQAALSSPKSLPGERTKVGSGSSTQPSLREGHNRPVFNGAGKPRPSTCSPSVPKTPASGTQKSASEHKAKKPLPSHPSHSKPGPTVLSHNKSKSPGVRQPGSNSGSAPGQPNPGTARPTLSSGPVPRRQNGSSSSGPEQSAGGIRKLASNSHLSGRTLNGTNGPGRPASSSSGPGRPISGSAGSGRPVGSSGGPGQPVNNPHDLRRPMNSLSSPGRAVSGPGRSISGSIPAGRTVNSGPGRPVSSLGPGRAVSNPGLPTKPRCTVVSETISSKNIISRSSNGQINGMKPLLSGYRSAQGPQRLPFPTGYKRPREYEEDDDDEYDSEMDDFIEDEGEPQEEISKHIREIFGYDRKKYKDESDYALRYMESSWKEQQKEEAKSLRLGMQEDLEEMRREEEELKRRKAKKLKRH
# UniProt Q61409: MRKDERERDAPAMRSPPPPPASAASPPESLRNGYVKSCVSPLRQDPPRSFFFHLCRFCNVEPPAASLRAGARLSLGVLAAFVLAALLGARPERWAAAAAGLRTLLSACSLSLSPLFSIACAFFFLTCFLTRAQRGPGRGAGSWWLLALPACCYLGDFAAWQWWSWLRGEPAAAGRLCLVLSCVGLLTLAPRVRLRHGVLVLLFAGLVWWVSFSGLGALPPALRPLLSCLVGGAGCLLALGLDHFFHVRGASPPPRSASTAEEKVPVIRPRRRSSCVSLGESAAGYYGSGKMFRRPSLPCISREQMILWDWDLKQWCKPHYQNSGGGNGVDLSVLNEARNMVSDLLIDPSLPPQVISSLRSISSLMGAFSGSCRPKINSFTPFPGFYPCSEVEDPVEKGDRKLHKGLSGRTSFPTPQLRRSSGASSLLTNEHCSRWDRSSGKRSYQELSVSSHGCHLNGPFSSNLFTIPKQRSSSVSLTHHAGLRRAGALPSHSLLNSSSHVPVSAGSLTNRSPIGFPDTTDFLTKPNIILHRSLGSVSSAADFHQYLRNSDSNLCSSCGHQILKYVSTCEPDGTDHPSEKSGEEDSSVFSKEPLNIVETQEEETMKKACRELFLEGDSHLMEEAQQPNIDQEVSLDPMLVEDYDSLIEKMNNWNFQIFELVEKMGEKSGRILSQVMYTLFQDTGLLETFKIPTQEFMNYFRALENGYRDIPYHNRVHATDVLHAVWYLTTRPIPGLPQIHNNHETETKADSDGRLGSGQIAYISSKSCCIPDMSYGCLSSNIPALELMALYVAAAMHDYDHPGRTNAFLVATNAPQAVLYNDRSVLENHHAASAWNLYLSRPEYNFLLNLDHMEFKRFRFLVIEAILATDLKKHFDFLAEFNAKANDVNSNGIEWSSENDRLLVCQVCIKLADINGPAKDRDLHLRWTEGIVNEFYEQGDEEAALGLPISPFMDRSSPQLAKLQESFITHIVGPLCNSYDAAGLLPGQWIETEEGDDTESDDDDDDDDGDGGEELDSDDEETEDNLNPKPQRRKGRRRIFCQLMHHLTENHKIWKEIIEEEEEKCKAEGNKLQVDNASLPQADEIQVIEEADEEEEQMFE
# UniProt Q64685: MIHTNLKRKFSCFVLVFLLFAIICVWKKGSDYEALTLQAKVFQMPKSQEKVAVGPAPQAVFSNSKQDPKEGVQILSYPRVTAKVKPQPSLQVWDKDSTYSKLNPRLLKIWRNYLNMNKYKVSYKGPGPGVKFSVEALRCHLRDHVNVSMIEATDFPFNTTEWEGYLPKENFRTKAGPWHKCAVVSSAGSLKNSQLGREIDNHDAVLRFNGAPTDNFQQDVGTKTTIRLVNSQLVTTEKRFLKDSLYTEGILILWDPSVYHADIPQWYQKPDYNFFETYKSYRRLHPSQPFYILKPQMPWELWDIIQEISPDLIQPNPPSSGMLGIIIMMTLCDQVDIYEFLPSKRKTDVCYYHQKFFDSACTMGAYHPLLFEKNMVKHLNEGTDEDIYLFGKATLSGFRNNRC
# UniProt Q69Z37: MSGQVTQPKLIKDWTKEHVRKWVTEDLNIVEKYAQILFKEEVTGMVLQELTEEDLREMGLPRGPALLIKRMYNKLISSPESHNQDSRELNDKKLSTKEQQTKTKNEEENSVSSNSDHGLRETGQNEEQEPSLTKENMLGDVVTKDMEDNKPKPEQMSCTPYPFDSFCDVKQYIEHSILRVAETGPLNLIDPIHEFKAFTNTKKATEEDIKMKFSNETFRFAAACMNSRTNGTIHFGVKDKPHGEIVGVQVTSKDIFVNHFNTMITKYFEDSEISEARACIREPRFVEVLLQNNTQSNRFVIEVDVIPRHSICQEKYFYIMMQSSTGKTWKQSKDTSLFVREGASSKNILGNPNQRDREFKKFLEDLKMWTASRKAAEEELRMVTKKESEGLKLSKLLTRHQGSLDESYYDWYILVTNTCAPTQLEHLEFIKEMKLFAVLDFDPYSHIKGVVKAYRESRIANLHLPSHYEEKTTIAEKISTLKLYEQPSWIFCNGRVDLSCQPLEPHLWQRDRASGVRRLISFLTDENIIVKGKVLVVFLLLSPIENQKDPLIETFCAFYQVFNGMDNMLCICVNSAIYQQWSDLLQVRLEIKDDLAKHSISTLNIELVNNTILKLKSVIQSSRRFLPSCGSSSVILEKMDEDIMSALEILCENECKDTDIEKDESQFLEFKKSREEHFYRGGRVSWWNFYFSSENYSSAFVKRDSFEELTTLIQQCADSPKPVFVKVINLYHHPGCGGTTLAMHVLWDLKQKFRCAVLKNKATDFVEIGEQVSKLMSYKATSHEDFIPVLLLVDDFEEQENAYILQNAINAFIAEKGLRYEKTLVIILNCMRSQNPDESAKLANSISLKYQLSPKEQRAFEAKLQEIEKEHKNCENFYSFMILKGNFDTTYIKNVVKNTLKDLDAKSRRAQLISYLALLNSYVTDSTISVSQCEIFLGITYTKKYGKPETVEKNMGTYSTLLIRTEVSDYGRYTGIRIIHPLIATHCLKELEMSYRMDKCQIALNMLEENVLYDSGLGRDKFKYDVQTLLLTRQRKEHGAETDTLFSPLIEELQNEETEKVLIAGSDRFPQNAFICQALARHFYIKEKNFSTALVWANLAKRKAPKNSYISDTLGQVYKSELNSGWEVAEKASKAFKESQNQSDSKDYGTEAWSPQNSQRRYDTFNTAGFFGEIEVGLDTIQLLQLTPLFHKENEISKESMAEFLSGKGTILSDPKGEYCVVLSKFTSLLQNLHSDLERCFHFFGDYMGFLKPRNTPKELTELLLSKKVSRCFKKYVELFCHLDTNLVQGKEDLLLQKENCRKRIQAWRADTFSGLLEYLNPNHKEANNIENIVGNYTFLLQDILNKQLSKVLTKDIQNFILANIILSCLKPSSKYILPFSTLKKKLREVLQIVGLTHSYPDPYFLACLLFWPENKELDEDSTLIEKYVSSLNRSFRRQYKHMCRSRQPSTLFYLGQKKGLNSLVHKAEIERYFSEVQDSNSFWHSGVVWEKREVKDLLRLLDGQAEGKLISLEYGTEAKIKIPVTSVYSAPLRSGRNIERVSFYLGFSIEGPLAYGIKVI
# This is one part of the list. Most entries show no effect beyond the scatter of the controls.
# Compound: CN[C@@H]1C[C@H]2O[C@@](C)([C@@H]1OC)n1c3ccccc3c3c4c(c5c6ccccc6n2c5c31)C(=O)NC4 [staurosporine]
# Experiment: log2 fold change of tryptic peptide abundance, ligand vs vehicle (limited proteolysis) (log2 ratio); higher = more trypsin-susceptible (destabilized)
# Details: ligand concentration: 20 uM; sample: mouse liver crude lysate; replicate design: treated separately
row,Target,log2 fold change
1,"UniProt Q66JW3 (peptide sequence: GQNPNATFGEVSK, peptide start residue: 243)",0.136
2,"UniProt Q640N3 (peptide sequence: ELHPVVPLVAPQR, peptide start residue: 1072)",-0.306
3,"UniProt Q61466 (peptide sequence: KRPAPQQIQQVQQQAVQNR, peptide start residue: 101)",0.564
4,"UniProt Q62417 (peptide sequence: RAGEQDPVPTPAELTSPGR, peptide start residue: 170)",-0.22
5,"UniProt Q64520 (peptide sequence: QALSEEIKK, peptide start residue: 183)",0.168
6,"UniProt Q68FL4 (peptide sequence: ESILDGLK, peptide start residue: 295)",0.686
7,"UniProt Q62261 (peptide sequence: LLEVLSGERLPKPTK, peptide start residue: 91)",0.366
8,"UniProt Q62415 (peptide sequence: SVVNVPGEKR, peptide start residue: 105)",-0.336
9,"UniProt Q62186 (peptide sequence: FFDEESYSLLRK, peptide start residue: 105)",-0.58
10,"UniProt Q64152 (peptide sequence: KLQFSLKK, peptide start residue: 85)",0.156
11,"UniProt Q69Z69 (peptide sequence: EIHGQIQTVK, peptide start residue: 140)",-0.384
12,"UniProt Q61584 (peptide sequence: LPPPPDIKK, peptide start residue: 49)",0.22
13,"UniProt Q68FH4 (peptide sequence: TKPLWHNYFLCGFK, peptide start residue: 103)",0.376
14,"UniProt Q64707 (peptide sequence: QREEEEQKLQEK, peptide start residue: 114)",-0.48
15,"UniProt Q63829 (peptide sequence: QIDPVVLKHCHAAAATCILEAGK, peptide start residue: 53)",-0.421
16,"UniProt Q62108 (peptide sequence: ALFDYDKTK, peptide start residue: 588)",0.00243
17,"UniProt Q64442 (peptide sequence: AVEAFETAK, peptide start residue: 331)",0.149
18,"UniProt Q69ZJ7 (peptide sequence: TPEQTSPR, peptide start residue: 1365)",-0.221
19,"UniProt Q62448 (peptide sequence: KGQLNADEISLRPAQSFLMNK, peptide start residue: 463)",-0.171
20,"UniProt Q64521 (peptide sequence: LVGAIVYYDGQHNDAR, peptide start residue: 212)",-0.66

# A second format for some results above:
row	Target	log2 fold change
1	UniProt Q66JW3 (peptide sequence: GQNPNATFGEVSK, peptide start residue: 243)	0.136
12	UniProt Q61584 (peptide sequence: LPPPPDIKK, peptide start residue: 49)	0.22

# Next records:

row,Target,log2 fold change
1,"UniProt Q62422 (peptide sequence: ALYTFEPR, peptide start residue: 19)",-0.0883
2,"UniProt Q61941 (peptide sequence: DGKVIFPAPTPK, peptide start residue: 431)",0.484
3,"UniProt Q61382 (peptide sequence: HVEESVKPHLAMMCALVSR, peptide start residue: 269)",0.0179
4,"UniProt Q62276 (peptide sequence: ETLLQSYNKR, peptide start residue: 12)",0.597
5,"UniProt Q61545 (peptide sequence: TGQPMIHIYLDK, peptide start residue: 392)",0.341
6,"UniProt Q61712 (peptide sequence: LLIKPQWHDLLPCK, peptide start residue: 209)",0.427
7,"UniProt Q69ZK0 (peptide sequence: FRYDDGTYK, peptide start residue: 489)",-0.402
8,"UniProt Q62418 (peptide sequence: ASGANYSFHK, peptide start residue: 135)",-0.155
9,"UniProt Q64704 (peptide sequence: KFVEVMTK, peptide start residue: 126)",0.261
10,"UniProt Q68FG3 (peptide sequence: GLPFPQAEK, peptide start residue: 254)",0.177
11,"UniProt Q62077 (peptide sequence: SLMYSAQK, peptide start residue: 219)",0.488
12,"UniProt Q61409 (peptide sequence: LADINGPAKDRDLHLR, peptide start residue: 911)",1.09
13,"UniProt Q66JX5 (peptide sequence: IASFLSSSAVDAR, peptide start residue: 226)",-0.147
14,"UniProt Q61644 (peptide sequence: KAQKPWAK, peptide start residue: 140)",-0.335
15,"UniProt Q64685 (peptide sequence: MIHTNLKR, peptide start residue: 1)",-0.456
16,"UniProt Q69Z37 (peptide sequence: IKIPVTSVYSAPLR, peptide start residue: 1521)",-0.73
17,"UniProt Q61425 (peptide sequence: KTGEGFYK, peptide start residue: 305)",0.137
18,"UniProt Q61838 (peptide sequence: YGAATFTR, peptide start residue: 1282)",0.273
19,"UniProt Q62009 (peptide sequence: LILQNHILK, peptide start residue: 429)",-0.168
